Measured values reported in article PMC4319893 (PLoS ONE, 2015).

Assay: general procedure: Fmoc solid-phase peptide synthesis; preloaded Fmoc-Val-Wang-resin or Val-2CT-resin (0.6–0.7 mmol/g, 100–200 mesh); HBTU/DIPEA
Conditions: conjugation step, TFA salts

With Cy5-Cys-N-dimer the “final HPLC purity” value (ELSD, UV) was over 95% and the conjugation yield was 75%.
